Source: PubChem BioAssay AID1159506 (NCATS, 2015).

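Genome-wide siRNA knockdown in TC32 Ewing sarcoma cells, comparing luciferase light from an NR0B1-promoter reporter with a CMV-promoter reporter 48 hours after transfection.
Each siRNA was applied at 20 nM.
A z-score of the log NR0B1-over-CMV signal, less the median of siRNAs with the same seed; more negative means a stronger specific loss of the NR0B1 reporter.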

This is part of the screen; most of the strongest results are not listed here.
Sequences are the guide (antisense) strand, without overhang.

Sequence	target gene	seed-corrected z-score
UCCAUAUUUCCGAUGUUGC	IGBP1	0.3892
UGACUACCAAGAAAUCACA	C8orf37	0.1008
UAUUAGCUUGGUGUAGCUU	C3orf22	0.1218
UUGAUCUUCUUAGUCAUCU	TXLNA	-0.03231
UACUUCUAGACUAAUCGGC	SYNM	-0.3834
AGCAUUCAAAUGUCUGUUC	RUFY3	0.03835
UCUGUAUUUAGGGUGCAGG	SMR3A	-0.06426
AUCAUUAGCAUGUUCAUAC	PDXDC1	1.115
UCACGGUCAGGCUUAGGGA	LOC339059	-0.4808
AUAAUGGUCAGGAACUACC	ADAMTSL3	-1.877
AUAGGAGUUUCUGUAAUCC	TACC2	-0.3369
UGACUUCAUGUCCAUCUCG	NDUFS8	-0.6157
UACAGAUCCGCAUCUCCCU	C6orf120	0.321
AAACCAUCCACUCGUGAGC	C15orf32	-0.333
UGAGAUCUCUGAGUCAUCC	IPO4	-0.06159
UCUUGGAAGAGACAUGGUG	RPL32P19	-0.2064
ACUGAUCCCAGAAUGGGCC	POFUT1	-0.002053
UGACAUACACUGGUCGUCC	FIG4	0.3105
UCUGCAAUCACUGAGUCAC	SLX4IP	-1.272
UGUUAACUAAUGGUAUUUC	LINC01020	-0.4436
CUAGCUCUAAGGGAACUGC	MAP4	0.7311
UGAGGACUCAUUUCGUGCC	MSLN	-0.7434
AUGGAUGCAUAAUCUUUCC	TCP10	1.002
UGAUAUAUCCCGGGUGCCC	FLCN	-0.7284
UCUCUGAAGGGCUUAAUCC	SOCS5P5	-0.03496
AUCGUGGUCUGAGUCCUCC	COMP	-0.6809
AGCCUUACAAACAAUGUUC	SUOX	-0.414
UAGGAUGCCCGGCAGAACU	IL27RA	0.06583
AUCUUUGCAAGUACUUUUG	POLL	-0.5878
UUAAAGUCAACACCGAUGG	RAB15	0.3501
AAUGUUAGGACUUGCUUGC	RAB5A	0.4833
AAACUUCACCCAGAUGUCC	SNRPF	-1.387
UAUCCACAUACGUAGCUCC	FEM1A	0.437
UGUUAGUACACCGCAAUUC	WWC2-AS2	0.1281
UUCAAUUUAUACAAGAUGG	ARL17B	-0.3333
AUGCCGAUCAGCACGAUGC	ITGB2	-0.8388
UUCGGAAUAGAUGACCCGG	ICAM4	0.1723
UGAUGAUCAGGGAAGGUAC	ZNF689	-0.3737
UACACGUACAUCUCCUAGC	PDE7A	-0.4188
UCAGUGAUUGGAUCCCAAG	LINC00207	0.3951
AUGAUCUUGACCACGUUGC	OR2T27	-0.2097
UCAGGUUCCAGUAGGUGAG	ZBED4	-1.441
UCUUCUUGGAUCUUCAUCU	COMMD9	1.6
AAUAGGUUAGGUACGUUAG	CHD7	-0.1092
AAGCGGGCUUCAUCUGUGC	ARL11	-0.7058
UUCAUGAUGAAUUGGGUGG	CCER1	0.3505
UCAGUAUGAUGUUACAGUC	ZNF544	-0.176
UUAGUGCCUGCAAUGAUCC	PPFIBP2	0.1924
UUUGGUACAGACCCAGCCG	TLX2	-0.05135
UUAUGAAGAACUGUUAUUU	C14orf142	1.915
AAAGUCUCCUCGUUCUUUC	ATP1B1	0.9986
UGGGUACUAAGACAGUUGG	RBM25	-0.2505
UUAAAGAACAGAUAUUCUC	MMP10	0.2762
UAGUAAGUAGGGUAGUCAC	TMEM53	-0.2301
UCUUGUUCCUCGUACACUG	RBM17	2.325
UUGGGAGAGAGUACCACGC	SEZ6	-0.9619
UAAAGUCUGGGAUGUUAGU	VWA1	0.5609
UAUGCAGGAAGACUCGUCG	IRX6	-0.2415
UUCUGAACCACUUGUCUUC	C8orf76	-0.3132
UUCUUUAAUAGACUGGGUC	BRCA1	-1.655
UCACGGAGAAGUUGAUGGG	NOC2L	0.4482
AAAUAGAUCAGAAUCAUCC	PCID2	1.092
UCAACUUCUGGUGCAACUG	KNSTRN	-0.7385
AAUGCUCUCACGCAUGUCU	PRSS47	-0.7181
UUCAGGUACUCAGUCAUCC	BCL2	-0.3143
UAGCAUACCUUUUAUAAAC	AP1S3	-0.5093
UCAUUAUCAUCUGAUCGAC	AK2	-0.1863
UCGAGUUAAAUAAACCAGC	E2F6	-0.001711
AACGGGUAAGUUAUCUUAG	SPAG17	0.1249
UUUGAGUGCACAUUGAUGG	LINC00336	-1.009
UCUCGUGAUACUUCAAUGG	NR2C1	0.5374
UUUCUGCUUGGUGAAGUCC	MCM5	-0.2718

For reference, 5 entries once more:

Result for UCUCUGAAGGGCUUAAUCC against SOCS5P5 was seed-corrected z-score -0.03496.
Result for UUUCUGCUUGGUGAAGUCC against MCM5 was seed-corrected z-score -0.2718.
Result for UGAGAUCUCUGAGUCAUCC against IPO4 was seed-corrected z-score -0.06159.
Result for AUAAUGGUCAGGAACUACC against ADAMTSL3 was seed-corrected z-score -1.877.
Result for UGACUUCAUGUCCAUCUCG against NDUFS8 was seed-corrected z-score -0.6157.